Results are given in words; binding and its absence hold for the method and conditions named. Some results given as binding are weak or reduced against the parent protein; the word gives no strength.
Biological target: PD-L1 on CHO-PD-L1 cells (UniProt Q9NZQ7)
Test: flow cytometry on CHO-PD-L1 cells

Protein sequences, listed by entry. Tags and fused reporters are not part of them. Residues count along the entry.
UniProt Q9NZQ7, residues 19-290: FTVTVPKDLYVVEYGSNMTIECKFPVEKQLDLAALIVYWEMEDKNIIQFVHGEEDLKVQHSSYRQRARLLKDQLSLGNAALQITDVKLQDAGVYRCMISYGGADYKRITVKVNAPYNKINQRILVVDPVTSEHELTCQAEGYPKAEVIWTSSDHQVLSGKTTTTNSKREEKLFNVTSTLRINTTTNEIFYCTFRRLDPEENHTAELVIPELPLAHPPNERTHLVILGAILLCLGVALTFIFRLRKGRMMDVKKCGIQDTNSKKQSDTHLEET

B1: 人源化抗PD-L1抗体156-BM12 (antibody, V domains shown)
VH: QVQLVQSGPELKKPGASVKISCKASGYTFTDYYMNWVRQAPGQSLEWIGDINPNNGDTSYNQKFKGRVTLTRDTSTSTVYMELRSLRSEDTAVYYCARSVMDYWGQGTLVTVSS
VL: EIVLTQSPALLSLSPGERVTLSCSASSSVNYVYWYQQKPGQAPRPLIYLTFNLASGIPARFSGSGSGTDFTLTISSLEPEDFAVYYCQQWSSNPLTFGGGTKVEIK
- binding: binds

Source: patent CN114773485A
